The results in this text go back to the supplement of paper PMC12067093, “Discovery and optimisation of a covalent ligand for TRIM25 and its application to targeted protein ubiquitination” (Chemical Science, 2025).

Amino acid sequences for entries named in this document (tags omitted). A change or cut given only in a name is not applied to a line headed by its entry.
UniProt Q969F9: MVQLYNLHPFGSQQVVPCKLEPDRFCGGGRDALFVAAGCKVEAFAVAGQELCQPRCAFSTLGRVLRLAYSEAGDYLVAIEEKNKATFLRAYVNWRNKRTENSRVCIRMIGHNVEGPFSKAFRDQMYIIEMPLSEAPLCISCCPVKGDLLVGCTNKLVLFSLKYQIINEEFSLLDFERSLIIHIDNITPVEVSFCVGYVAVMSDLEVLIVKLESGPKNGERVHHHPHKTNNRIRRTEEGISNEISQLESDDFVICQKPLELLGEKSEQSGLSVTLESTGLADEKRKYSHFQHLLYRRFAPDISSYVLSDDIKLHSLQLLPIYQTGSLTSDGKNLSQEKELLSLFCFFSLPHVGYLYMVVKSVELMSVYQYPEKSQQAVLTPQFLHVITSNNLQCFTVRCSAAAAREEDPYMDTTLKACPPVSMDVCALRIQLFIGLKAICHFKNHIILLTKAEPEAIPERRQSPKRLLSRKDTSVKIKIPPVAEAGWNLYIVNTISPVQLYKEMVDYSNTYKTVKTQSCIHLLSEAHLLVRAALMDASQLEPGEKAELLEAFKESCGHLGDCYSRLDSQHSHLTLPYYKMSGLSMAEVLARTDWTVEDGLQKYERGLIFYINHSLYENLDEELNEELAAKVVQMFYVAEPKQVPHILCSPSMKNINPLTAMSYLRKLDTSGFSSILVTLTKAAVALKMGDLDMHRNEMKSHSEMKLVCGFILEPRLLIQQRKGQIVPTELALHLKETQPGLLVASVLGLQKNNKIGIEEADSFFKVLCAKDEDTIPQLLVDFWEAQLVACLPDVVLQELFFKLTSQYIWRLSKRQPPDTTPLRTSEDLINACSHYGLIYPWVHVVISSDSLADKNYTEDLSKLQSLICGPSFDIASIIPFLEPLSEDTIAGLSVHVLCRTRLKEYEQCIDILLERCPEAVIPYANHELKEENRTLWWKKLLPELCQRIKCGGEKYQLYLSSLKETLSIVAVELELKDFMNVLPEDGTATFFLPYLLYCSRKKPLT
UniProt P51991: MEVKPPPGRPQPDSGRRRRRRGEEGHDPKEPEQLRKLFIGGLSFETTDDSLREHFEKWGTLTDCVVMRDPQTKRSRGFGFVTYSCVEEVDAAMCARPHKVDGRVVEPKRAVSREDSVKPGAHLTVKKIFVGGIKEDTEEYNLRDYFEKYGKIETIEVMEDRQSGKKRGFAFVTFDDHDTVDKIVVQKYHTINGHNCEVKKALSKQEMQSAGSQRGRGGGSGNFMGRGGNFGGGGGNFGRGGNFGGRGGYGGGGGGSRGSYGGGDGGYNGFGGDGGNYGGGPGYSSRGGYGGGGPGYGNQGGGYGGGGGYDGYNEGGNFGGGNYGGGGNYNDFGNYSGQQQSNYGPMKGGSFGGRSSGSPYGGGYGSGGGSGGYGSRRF
UniProt Q00839, whole entry, looked up: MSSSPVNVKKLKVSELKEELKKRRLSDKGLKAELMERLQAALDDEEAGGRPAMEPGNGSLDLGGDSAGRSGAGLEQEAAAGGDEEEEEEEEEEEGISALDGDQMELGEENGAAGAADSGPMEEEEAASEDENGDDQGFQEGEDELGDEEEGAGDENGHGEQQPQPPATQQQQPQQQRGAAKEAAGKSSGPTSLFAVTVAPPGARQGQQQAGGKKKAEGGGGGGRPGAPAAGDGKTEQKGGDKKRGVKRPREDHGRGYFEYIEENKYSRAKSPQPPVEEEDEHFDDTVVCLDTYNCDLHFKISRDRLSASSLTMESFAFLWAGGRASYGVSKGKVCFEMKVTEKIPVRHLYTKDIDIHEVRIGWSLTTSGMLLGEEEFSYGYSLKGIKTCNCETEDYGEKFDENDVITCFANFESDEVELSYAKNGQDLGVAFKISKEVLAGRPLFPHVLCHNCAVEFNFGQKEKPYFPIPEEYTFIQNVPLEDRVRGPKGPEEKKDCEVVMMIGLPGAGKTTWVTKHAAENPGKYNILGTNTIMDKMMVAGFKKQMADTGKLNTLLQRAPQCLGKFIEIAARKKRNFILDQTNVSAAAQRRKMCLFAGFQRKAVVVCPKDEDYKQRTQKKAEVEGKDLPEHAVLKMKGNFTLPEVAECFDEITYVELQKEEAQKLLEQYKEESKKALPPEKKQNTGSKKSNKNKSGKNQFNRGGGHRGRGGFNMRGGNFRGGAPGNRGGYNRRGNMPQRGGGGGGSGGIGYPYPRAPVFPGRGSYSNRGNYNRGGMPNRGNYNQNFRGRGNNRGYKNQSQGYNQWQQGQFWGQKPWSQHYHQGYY
UniProt P38646: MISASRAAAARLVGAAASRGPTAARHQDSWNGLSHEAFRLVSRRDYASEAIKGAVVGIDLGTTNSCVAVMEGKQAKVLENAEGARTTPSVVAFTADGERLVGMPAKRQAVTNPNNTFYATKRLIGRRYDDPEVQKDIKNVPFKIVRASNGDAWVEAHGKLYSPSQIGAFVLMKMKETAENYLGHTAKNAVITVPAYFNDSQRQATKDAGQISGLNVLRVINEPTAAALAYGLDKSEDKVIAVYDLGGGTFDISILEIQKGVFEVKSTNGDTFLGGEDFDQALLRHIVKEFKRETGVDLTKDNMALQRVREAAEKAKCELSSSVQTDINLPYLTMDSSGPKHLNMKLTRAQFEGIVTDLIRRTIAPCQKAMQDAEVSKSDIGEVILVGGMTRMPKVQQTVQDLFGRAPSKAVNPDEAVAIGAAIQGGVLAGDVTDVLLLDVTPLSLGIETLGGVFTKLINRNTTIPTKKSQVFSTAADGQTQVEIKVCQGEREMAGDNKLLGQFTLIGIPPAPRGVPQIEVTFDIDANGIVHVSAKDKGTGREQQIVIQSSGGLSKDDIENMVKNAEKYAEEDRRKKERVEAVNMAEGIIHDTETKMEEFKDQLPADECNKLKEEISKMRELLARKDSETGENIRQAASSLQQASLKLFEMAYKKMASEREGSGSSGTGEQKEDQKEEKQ
UniProt O14979: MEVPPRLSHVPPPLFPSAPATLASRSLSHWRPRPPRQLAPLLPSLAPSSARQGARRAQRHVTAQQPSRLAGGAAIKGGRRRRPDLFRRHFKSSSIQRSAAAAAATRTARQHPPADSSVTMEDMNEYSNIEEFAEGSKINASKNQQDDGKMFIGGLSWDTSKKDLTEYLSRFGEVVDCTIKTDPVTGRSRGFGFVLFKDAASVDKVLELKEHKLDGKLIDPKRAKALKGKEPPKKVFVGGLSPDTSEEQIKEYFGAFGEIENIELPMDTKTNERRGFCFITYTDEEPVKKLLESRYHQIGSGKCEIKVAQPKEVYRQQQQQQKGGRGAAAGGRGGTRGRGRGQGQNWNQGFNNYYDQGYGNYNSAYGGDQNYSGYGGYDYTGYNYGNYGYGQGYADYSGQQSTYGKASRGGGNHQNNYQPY
UniProt P04035: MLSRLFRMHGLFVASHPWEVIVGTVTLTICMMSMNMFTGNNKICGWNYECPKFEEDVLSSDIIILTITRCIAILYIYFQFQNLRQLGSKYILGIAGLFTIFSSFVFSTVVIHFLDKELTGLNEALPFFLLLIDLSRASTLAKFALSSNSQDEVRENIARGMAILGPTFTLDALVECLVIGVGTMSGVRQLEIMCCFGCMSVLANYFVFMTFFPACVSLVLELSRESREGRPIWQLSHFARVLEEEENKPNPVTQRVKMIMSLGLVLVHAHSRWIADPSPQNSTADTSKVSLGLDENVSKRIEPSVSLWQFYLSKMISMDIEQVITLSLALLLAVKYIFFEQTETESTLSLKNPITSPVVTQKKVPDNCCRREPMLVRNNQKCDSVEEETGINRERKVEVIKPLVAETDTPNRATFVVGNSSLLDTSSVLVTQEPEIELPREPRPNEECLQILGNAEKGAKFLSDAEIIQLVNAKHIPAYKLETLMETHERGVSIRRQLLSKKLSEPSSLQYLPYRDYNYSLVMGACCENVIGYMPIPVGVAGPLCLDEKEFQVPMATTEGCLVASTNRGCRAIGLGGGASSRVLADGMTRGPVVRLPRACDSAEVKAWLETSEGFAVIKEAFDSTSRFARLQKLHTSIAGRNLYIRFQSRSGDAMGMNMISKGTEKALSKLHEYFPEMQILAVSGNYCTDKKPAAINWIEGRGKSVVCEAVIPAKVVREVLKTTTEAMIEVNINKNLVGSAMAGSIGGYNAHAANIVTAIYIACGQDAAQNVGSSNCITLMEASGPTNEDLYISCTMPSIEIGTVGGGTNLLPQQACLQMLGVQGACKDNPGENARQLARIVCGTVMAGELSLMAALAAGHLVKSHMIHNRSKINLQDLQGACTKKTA
UniProt O95757: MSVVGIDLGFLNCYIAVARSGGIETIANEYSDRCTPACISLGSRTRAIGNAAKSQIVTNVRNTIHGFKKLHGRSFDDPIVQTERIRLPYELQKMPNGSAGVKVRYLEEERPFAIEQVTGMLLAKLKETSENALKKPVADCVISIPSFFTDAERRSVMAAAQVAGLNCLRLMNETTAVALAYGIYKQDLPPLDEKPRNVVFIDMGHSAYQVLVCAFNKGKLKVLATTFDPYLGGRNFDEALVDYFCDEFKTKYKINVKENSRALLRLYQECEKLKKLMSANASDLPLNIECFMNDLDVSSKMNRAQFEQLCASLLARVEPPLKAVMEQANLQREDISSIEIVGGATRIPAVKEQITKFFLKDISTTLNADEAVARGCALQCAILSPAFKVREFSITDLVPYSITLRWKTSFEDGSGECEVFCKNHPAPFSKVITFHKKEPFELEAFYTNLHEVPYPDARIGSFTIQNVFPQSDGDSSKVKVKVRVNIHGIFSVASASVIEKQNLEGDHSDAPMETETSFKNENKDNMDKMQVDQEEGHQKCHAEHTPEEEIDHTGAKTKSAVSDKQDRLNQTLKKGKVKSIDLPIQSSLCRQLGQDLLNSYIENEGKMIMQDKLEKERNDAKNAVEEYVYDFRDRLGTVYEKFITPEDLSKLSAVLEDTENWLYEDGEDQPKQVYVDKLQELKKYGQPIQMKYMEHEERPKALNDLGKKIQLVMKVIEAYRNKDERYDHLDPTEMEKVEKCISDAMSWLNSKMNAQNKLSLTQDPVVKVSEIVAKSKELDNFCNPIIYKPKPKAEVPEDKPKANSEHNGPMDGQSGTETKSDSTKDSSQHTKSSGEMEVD
UniProt P09651: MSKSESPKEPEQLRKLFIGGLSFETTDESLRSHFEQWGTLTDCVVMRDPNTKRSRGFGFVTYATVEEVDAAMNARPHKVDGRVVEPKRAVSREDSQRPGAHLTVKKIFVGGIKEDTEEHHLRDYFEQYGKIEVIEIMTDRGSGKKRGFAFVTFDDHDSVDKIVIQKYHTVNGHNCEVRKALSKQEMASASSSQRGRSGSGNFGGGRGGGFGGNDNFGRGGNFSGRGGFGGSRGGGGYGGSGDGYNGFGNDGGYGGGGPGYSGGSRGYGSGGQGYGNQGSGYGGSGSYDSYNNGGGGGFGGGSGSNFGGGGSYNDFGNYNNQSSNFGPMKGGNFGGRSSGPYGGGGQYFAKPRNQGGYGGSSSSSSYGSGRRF
UniProt Q5SSJ5: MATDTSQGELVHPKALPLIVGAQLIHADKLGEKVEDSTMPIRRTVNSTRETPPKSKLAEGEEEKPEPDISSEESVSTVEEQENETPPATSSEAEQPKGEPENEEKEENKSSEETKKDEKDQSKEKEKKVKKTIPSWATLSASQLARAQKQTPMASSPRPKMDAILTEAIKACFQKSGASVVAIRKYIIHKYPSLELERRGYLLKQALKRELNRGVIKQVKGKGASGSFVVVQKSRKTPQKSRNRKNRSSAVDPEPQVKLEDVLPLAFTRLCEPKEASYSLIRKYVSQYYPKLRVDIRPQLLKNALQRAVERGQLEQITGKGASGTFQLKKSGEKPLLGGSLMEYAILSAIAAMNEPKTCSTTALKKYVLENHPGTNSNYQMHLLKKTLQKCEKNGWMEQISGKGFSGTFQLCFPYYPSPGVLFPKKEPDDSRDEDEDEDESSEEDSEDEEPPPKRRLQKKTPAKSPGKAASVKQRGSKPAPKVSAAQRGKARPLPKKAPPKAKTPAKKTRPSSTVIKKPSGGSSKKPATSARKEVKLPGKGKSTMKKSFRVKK
UniProt Q96IR7: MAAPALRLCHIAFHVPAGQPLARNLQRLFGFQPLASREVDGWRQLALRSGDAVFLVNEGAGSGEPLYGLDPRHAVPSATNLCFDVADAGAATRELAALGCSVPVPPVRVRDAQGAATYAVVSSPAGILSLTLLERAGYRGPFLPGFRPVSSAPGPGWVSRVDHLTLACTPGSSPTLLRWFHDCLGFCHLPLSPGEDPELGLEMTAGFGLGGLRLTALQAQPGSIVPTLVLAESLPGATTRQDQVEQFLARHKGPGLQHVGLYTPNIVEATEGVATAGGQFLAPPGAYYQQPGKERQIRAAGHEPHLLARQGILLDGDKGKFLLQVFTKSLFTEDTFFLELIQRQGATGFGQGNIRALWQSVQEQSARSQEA
UniProt Q9BUP3: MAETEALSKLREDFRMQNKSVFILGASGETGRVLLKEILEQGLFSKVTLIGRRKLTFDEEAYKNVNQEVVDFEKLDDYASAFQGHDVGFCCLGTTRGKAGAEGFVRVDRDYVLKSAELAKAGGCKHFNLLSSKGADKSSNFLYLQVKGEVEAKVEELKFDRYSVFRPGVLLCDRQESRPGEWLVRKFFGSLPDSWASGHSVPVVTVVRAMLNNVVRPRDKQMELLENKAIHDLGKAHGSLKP

Some of the results follow.

Compound in the experiment: CC1Cc2ccccc2N1C(=O)C1CCCN(C1)C(=O)CCl (mixture of isomers) [TRIM25 ligand 11 (diastereomer mixture)]
As to the kind of experiment: probe-labelled cysteine peptide fold change vs DMSO (competition) (log2 fold change); higher = less target engagement (more negative = stronger competition). Particulars: THP-1, incubation time: 4 h.
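Further: competitive chemoproteomic profiling in live THP-1 cells with an iodoacetamide desthiobiotin (IA-DTB) probe, comparing probe-labelled peptide intensities in compound-treated cells against DMSO-treated controls.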

Consider “HPS3_Q969F9_254_TEEGISNEISQLESDDFVICQK (UniProt Q969F9)”, for which the “probe-labelled cysteine peptide fold change” value (10 µM) is -0.0867 and the “probe-labelled cysteine peptide fold change” value (50 µM) is -0.36.

In the case of “HNRNPA3_P51991_85+94_GFGFVTYSCVEEVDAAMCARPHK (UniProt P51991)”, the “probe-labelled cysteine peptide fold change” value was -0.263 (10 µM) and -0.209 (50 µM).

For the target “HSP90AA1_P07900_420_CLELFTELAEDK (UniProt P07900)”, the “probe-labelled cysteine peptide fold change” value by setting is: (10 µM) 0.0827; (50 µM) -0.0288.

Consider “HPCAL1_P37235_38_DCPTGHLTVDEFKK (UniProt P37235)”, for which the “probe-labelled cysteine peptide fold change” value runs as follows: (10 µM) -0.0734; (50 µM) -0.0031.

Consider “HNRNPA3_P51991_64_WGTLTDCVVMRDPQTK (UniProt P51991)”, for which the “probe-labelled cysteine peptide fold change” value is, setting by setting: (10 µM) -0.0934; (50 µM) -0.159.

With “HNRNPU_Q00839_389_TCNCETEDYGEK (UniProt Q00839)”, the “probe-labelled cysteine peptide fold change” value by setting is: (10 µM) 0.184; (50 µM) 0.314.

Consider “HSD17B11_Q8NBQ5_94_VHTFVVDCSNREDIYSSAK (UniProt Q8NBQ5)”, for which the “probe-labelled cysteine peptide fold change” value by setting is: (10 µM) 0.0629; (50 µM) -0.0602.

For the target “HSPA9_P38646_317_CELSSSVQTDINLPYLTMDSSGPK (UniProt P38646)”, the “probe-labelled cysteine peptide fold change” value is, setting by setting: (10 µM) 0.00978; (50 µM) -0.124.

With “HNRNPDL_O14979_277_RGFCFITYTDEEPVKK (UniProt O14979)”, the “probe-labelled cysteine peptide fold change” value by setting is: (10 µM) -0.177; (50 µM) -0.0946.

In the case of “HNRNPLL_Q8WVV9_505_TLSGLLEWECK (UniProt Q8WVV9)”, the “probe-labelled cysteine peptide fold change” value is 0.0315 (10 µM) and -0.00786 (50 µM).

On to “HNRNPM_P52272_676_FNECGHVLYADIK (UniProt P52272)”, for which the “probe-labelled cysteine peptide fold change” value is, setting by setting: (10 µM) 0.0108; (50 µM) 0.038.

Regarding “HNRNPUL1_Q9BUJ2_391_AEPYCSVLPGFTFIQHLPLSER (UniProt Q9BUJ2)”, the “probe-labelled cysteine peptide fold change” value runs as follows: (10 µM) -0.0675; (50 µM) -0.191.

As to “HNRNPA0_Q13151_49_CFGFVTYSNVEEADAAMAASPHAVDGNTVELK (UniProt Q13151)”, the “probe-labelled cysteine peptide fold change” value runs as follows: (10 µM) 0.247; (50 µM) -0.127.

With “HOXA11_P31270_82_GNLAHCYSAEELVHR (UniProt P31270)”, the “probe-labelled cysteine peptide fold change” value reads like this: (10 µM) 0.0655; (50 µM) -0.134.

“HNRNPU_Q00839_391_TCNCETEDYGEK (UniProt Q00839)”: the “probe-labelled cysteine peptide fold change” value reads like this: (10 µM) 0.439; (50 µM) 0.074.

Regarding “HSPBP1_Q9NZL4_325_CQLLQQHEEYQEELEFCEK (UniProt Q9NZL4)”, the “probe-labelled cysteine peptide fold change” value runs as follows: (10 µM) -0.173; (50 µM) 0.0703.

Regarding “HMGCR_P04035_600_ACDSAEVK (UniProt P04035)”, the “probe-labelled cysteine peptide fold change” value runs as follows: (10 µM) -0.442; (50 µM) 0.128.

Take “HSPD1_P10809_442_AAVEEGIVLGGGCALLR (UniProt P10809)”: the “probe-labelled cysteine peptide fold change” value was -0.0139 (10 µM) and -0.0338 (50 µM).

Turning to “HTATSF1_O43719_328_LLLFDRHPDGVASVSFRDPEEADYCIQTLDGR (UniProt O43719)”, the “probe-labelled cysteine peptide fold change” value runs as follows: (10 µM) 0.141; (50 µM) 0.0805.

In the case of “HPRT1_P00492_23_SPGVVISDDEPGYDLDLFCIPNHYAEDLER (UniProt P00492)”, the “probe-labelled cysteine peptide fold change” value was 0.0744 (10 µM) and -0.0996 (50 µM).

With “HNRNPA3_P51991_64_WGTLTDCVVMR (UniProt P51991)”, the “probe-labelled cysteine peptide fold change” value is, setting by setting: (10 µM) -0.152; (50 µM) -0.0572.

As to “HSPA4L_O95757_421_TSFEDGSGECEVFCK (UniProt O95757)”, the “probe-labelled cysteine peptide fold change” value is, setting by setting: (10 µM) -0.134; (50 µM) -0.0508.

Regarding “HNRNPA1_P09651_43_SHFEQWGTLTDCVVMRDPNTKR (UniProt P09651)”, the “probe-labelled cysteine peptide fold change” value (10 µM) was -0.241 and the “probe-labelled cysteine peptide fold change” value (50 µM) is -0.324.

On to “HSPA9_P38646_608_MEEFKDQLPADECNK (UniProt P38646)”, for which the “probe-labelled cysteine peptide fold change” value by setting is: (10 µM) -0.338; (50 µM) -0.172.

Take “HOOK3_Q86VS8_199_CHELDMQVAALQEEK (UniProt Q86VS8)”: the “probe-labelled cysteine peptide fold change” value was -0.00654 (10 µM) and -0.0781 (50 µM).

On to “HTATSF1_O43719_328_DPEEADYCIQTLDGR (UniProt O43719)”, for which the “probe-labelled cysteine peptide fold change” value by setting is: (10 µM) 0.0376; (50 µM) 0.141.

On to “HP1BP3_Q5SSJ5_359_TCSTTALKK (UniProt Q5SSJ5)”, for which the “probe-labelled cysteine peptide fold change” value (10 µM) is -0.214 and the “probe-labelled cysteine peptide fold change” value (50 µM) is -0.218.

Consider “HPDL_Q96IR7_9_LCHIAFHVPAGQPLAR (UniProt Q96IR7)”, for which the “probe-labelled cysteine peptide fold change” value was -0.126 (10 µM) and 0.0898 (50 µM).

As for “HSP90AA4P_Q58FG1_178_DLIMDNCEELIPEYLNFIR (UniProt Q58FG1)”, the “probe-labelled cysteine peptide fold change” value reads like this: (10 µM) 0.182; (50 µM) 0.348.

For the target “HNRNPDL_O14979_277_RGFCFITYTDEEPVK (UniProt O14979)”, the “probe-labelled cysteine peptide fold change” value runs as follows: (10 µM) -0.0535; (50 µM) -0.136.

As for “HSP90AB1_P08238_412_CLELFSELAEDK (UniProt P08238)”, the “probe-labelled cysteine peptide fold change” value runs as follows: (10 µM) 0.038; (50 µM) 0.0842.

In the case of “HTATSF1_O43719_462_EAEEGCPEK (UniProt O43719)”, the “probe-labelled cysteine peptide fold change” value (10 µM) is -0.0787 and the “probe-labelled cysteine peptide fold change” value (50 µM) is -0.285.

With “HNRNPUL2_Q1KMD3_57_LQEALDAEMLEDEAGGGGAGPGGACK (UniProt Q1KMD3)”, the “probe-labelled cysteine peptide fold change” value by setting is: (10 µM) -0.11; (50 µM) -0.35.

For “HPDL_Q96IR7_168_VDHLTLACTPGSSPTLLR (UniProt Q96IR7)”, the “probe-labelled cysteine peptide fold change” value is, setting by setting: (10 µM) 0.0884; (50 µM) -0.108.

For the target “HPS4_Q9NQG7_547_MNLYTHCVK (UniProt Q9NQG7)”, the “probe-labelled cysteine peptide fold change” value by setting is: (10 µM) -0.106; (50 µM) 0.0236.

Take “HNRNPA1_P09651_43_SHFEQWGTLTDCVVMRDPNTK (UniProt P09651)”: the “probe-labelled cysteine peptide fold change” value reads like this: (10 µM) -0.0525; (50 µM) -0.0919.

In the case of “HTATIP2_Q9BUP3_90_LDDYASAFQGHDVGFCCLGTTR (UniProt Q9BUP3)”, the “probe-labelled cysteine peptide fold change” value is, setting by setting: (10 µM) 0.237; (50 µM) 0.32.
